# Measured values: patent US10351598B2 (CAREGEN CO., LTD., priority 2016, dated 2019)
# Assay: general procedure: peptide synthesis; CTL resin
# Details: whole synthesis
substance,measurement,setting,value
Lys-Glu-Arg-Lys-Ser (KERKS),crude mass,,0.77 g
same,crude yield,scale of the general procedure 700 mg of resin,89.2%
